The assay has as its target T1, human LETM1 F-EF-hand domain, wild-type (residues 643-699), Ca2+-loaded (holo) (human) (UniProt O95202).
T1 sequence (chain, uniformly 15N-labeled): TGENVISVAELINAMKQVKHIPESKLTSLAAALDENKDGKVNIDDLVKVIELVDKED
Briefly: NMR titration; 1H-15N HSQC of uniformly 15N-labeled holo WT LETM1 F-EF (~200 or ~110 uM) alone and mixed with excess unlabeled partner (1:2 to 1:3 molar ratio); 20 mM Tris pH 7.8, 50 mM NaCl, 30 mM CaCl2, 10 mM or 1.5 mM CHAPS, 35 °C; both purified.

No constants are given. Whether binding was seen depends on the method and setting. Some binding calls cover weakened binding; strength is not graded here.

B1: human GHITM C-terminal domain construct (GHITM-CTD, residues 293-345) (domain or fragment, UniProt Q9H3K2 293-345)
chain: YDTQKVIKRAEVSPMYGVQKYDPINSMLSIYMDTLNIFMRVATMLATGGNRKK
For the molecule B1, the binding entry is reported as “binds weakly”.

B2: human LETM1 N-terminal domain construct (LETM1-NTD, residues 115-208) (domain or fragment, UniProt O95202-1 115-208)
chain: RDDSVVEKSLKSLKDKNKKLEEGGPVYSPPAEVVVKKSLGQRVLDELKHYYHGFRLLWIDTKIAARMLWRILNGHSLTRRERRQFLRICADLFR
On to B2, for which the binding result was “binds weakly”.

These data come from publication PMC11995678.
